For two molecules, binding results are on record in publication PMC5703909, “Bactofilin-mediated organization of the ParABS chromosome segregation system in Myxococcus xanthus” (Nature Communications, 2017).

The target in test [1] is T1, BacN-HA (M. xanthus) (UniProt Q1D3H0).
T1 sequence: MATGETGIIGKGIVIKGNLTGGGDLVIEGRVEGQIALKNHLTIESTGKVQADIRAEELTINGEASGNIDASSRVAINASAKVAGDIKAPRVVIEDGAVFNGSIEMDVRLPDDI
The test is described as follows: co-IP; anti-HA-tag mAb magnetic beads, 12 h at 4 °C, lysates of cells treated with 0.6% paraformaldehyde; Co-IP buffer (50 mM Tris/HCl pH 7.6, 150 mM NaCl, 0.1% Triton X-100); immunoblot with anti-HA, anti-BacP, anti-BacO. (In general: A western blot detects proteins with antibodies after separation by electrophoresis.)

Test [2] concerns the target T2, His6-PadC_(Δ1-239) (M. xanthus) (UniProt Q1D3H3).
T2 sequence: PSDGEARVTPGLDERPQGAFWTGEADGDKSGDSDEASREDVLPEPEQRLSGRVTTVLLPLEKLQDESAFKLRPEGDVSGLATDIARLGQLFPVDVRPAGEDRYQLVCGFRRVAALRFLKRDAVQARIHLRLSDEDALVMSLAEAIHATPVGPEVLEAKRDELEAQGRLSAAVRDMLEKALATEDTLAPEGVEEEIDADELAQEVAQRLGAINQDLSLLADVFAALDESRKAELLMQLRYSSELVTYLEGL
The test is described as follows: pull-down; Ni-NTA agarose beads pre-incubated with 1.5 mg purified His6-PadC(Δ1-239), mixed with cleared lysate of paraformaldehyde-treated DK1622 cells, overnight at 4 °C, buffer S; immunoblot with anti-BacP or anti-BacO; only the target purified.

These are yes or no findings as the source states them, for the method shown. Binding seen in cells or lysates may run through a third protein. Some binding calls cover weakened binding; strength is not graded here. Tags and fused reporters may be left off the sequences shown.

B1: BacP (protein, UniProt Q1D3H2 1-240)
chain: MATAKELSASSNVDNTVVGPSILISGRLTGDEDLTVRGRVEGELTLSRTLIVEPSGVVKANVAVKNAIVSGVVVGNINATESVELTREGRMVGDIRAPRVIIVDGASFRGRVDMGDVEPGRLPAERPAVVRPTAVTRPTATPARPTIPAARPMPPPPPSRPTPPPPPARPSAPPAVTRPSAPITRPGLGGLGSKPLPPPPPTRVERAEPQAGQAGSAEPPTPVLVGAGAKKKVVVKKKTR
As to B1, the binding result in test [1] and in test [2] was “binds” in each case.

B2: BacO (protein, UniProt Q1D3H1 1-126)
chain: MSFTPRTARHTPFERRTTLMANTVIGSSIVIDGEISGDEDLVIQGTVKGKISLKESLYVEGSGVVEADIETQNVEIAGRVTGNIVASDKVELKTDCRVVGDIKAPRILIADGASFKGNVDMDMKER
In the case of B2, the binding entry in test [1] and in test [2] was “binds” each time.
